Experimental data from patent publication US7563623B2, “Biosensor” (FUJIFILM Corporation, priority 2006, dated 2009).

Test: Solubility of SAM compounds in water, visual observation after standing at 25° C. for one day
Type: physicochemical
Conditions: conclusion from Table 1
Procedure: The mixtures were allowed to stand at 25° C. for one day, followed by observation. […] The symbol “x” indicates a resultant in which precipitation and sedimentation were observed, the symbol “Δ” indicates a resultant in which opacity was observed, and the symbol “◯” indicates a resultant having an achromatic and transparent color. • 16-Hydroxy-1-hexadecanethiol (Frontier Scientific) • 11-Hydroxy-1-undecanethiol (Aldrich) • 8-Hydroxy-1-octanethiol (Aldrich) • 6-Hydroxy-1-hexanethiol (Aldrich) • 11-Amino-1-undecanethiol, hydrochloride (Dojindo Laboratories) • 8-Amino-1-octanethiol, hydrochloride (Dojindo Laboratories) • 6-Amino-1-hexanethiol, hydrochloride (Dojindo Laboratories)

| Compound | ability to form a self-assembled monolayer (SAM) on a metal film in an aqueous solution system |
| --- | --- |
| OCCCCCCCCCCCCCCCCS [16-Hydroxy-1-hexadecanethiol] | unable to form a self-assembled monolayer (SAM) |
| OCCCCCCCCCCCS [11-Hydroxy-1-undecanethiol] | unable to form a self-assembled monolayer (SAM) |
| Cl.NCCCCCCCCCCCS [11-Amino-1-undecanethiol, hydrochloride] | unable to form a self-assembled monolayer (SAM) |

Some compounds share one wording; it may come from a single statement.
